# Results as given in patent US4981788A, “Novel acetylpolyamine amidohydrolase” (Kyowa Hakko Kogyo Co., Ltd., priority 1987, dated 1991).
# At least one compound was matched to its structure with a doubt left.
# Columns and labels:
# [1] = target: T1, acetylpolyamine amidohydrolase (the present enzyme, product purified to homogeneity) (Mycoplana ramosa, UniProt Q48935); assay: Enzyme activity on acetylpolyamine substrates, product purified to homogeneity (Method 2 / Method 3); assay type: biochemical, Mycoplana bullata
# T1 construct: novel acetylpolyamine amidohydrolase of the present invention accumulated within the grown cells; made in house; host or cells: Mycoplana (natural producer)
# T1 sequence (Q48935 1-341): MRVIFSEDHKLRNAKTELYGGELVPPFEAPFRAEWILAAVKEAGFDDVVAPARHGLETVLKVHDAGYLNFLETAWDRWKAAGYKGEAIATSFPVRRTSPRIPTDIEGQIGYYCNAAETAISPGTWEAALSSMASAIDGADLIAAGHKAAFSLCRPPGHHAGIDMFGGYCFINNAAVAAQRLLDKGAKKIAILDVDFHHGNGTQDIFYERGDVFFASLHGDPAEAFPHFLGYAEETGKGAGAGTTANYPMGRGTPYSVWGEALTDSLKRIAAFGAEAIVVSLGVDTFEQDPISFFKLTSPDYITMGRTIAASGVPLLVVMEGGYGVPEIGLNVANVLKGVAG
# Excerpt: [Method 2] (Assay when acetylputrescine, acetylcadaverine, N^1 -acetylspermidine and N^8 -acetylspermidine are used as substrate:)
# The acetylpolyamine can be hydrolyzed by the acetylpolyamine amidohydrolase, as described in [Method 1], and the corresponding free polyamine thus formed is then oxidized by putrescine oxidase. Putrescine oxidase derived from Micrococcus rubens is known to have an activity upon putrescine, cadaverine and spermidine [Adachi, et al., Agric. Biol. Chem, 30, 1202 (1966)]. […] The actual analytical procedure is as described below.
# The above reagents, (b) through (h), were put in a cuvette (d: 1.0 cm) and the mixture was preincubated at 37° C. for 2 minutes. The substrate solution (a) was then added, and the resulting mixture was incubated at 37° C. Absorbance at 500 nm was measured over a period of 3 to 5 minutes, and the change in absorbance per minute (ΔODsample) was determined from the linear portion of the plotted curve. For control, the same procedure as above was carried out, using distilled water as reference. […]
# Acetylspermine is hydrolyzed by the action of acetylpolyamine amidohydrolase into free form of spermine. […] Thus, the enzyme activity can be measured by quantitative determination of the hydrogen peroxide according to the method described above. […]
# Reagents (b) through (d) given in item (1) were put in a test tube and the mixture was preincubated at 37° C. for 2 minutes. […] A sample solution (200 μl), taken from the eluate containing free form of spermine, was mixed in a cuvette with reagents (a) through (e) given in item (2) above, the mixture was incubated at 37° C. for 10 minutes, and the absorbance at 755 nm was measured. […]
# The concentration of free form of spermine in the reaction mixture can be determined from a calibration curve previously prepared on the basis of aqueous soluitons of free form of spermine with different concentrations. […]
# [2] = target: T2, acetylpolyamine amidohydrolase (the present enzyme, partially purified product) (Mycoplana ramosa, UniProt Q48935); assay: Enzyme activity on acetylpolyamine substrates, partially purified product (substrate specificity, optimum pH/temperature, Km); assay type: biochemical, Mycoplana bullata
# T2 construct: novel acetylpolyamine amidohydrolase of the present invention accumulated within the grown cells; made in house; host or cells: Mycoplana (natural producer; cells grown in culture)
# T2 sequence (Q48935 1-341): T1 sequence (Q48935 1-341)
# Method: Activity of the present enzyme (partially purified products) is measured according to the following procedure. That is, 0.1 ml of an enzyme solution is added to a reagent solution consisting of 1.5 ml of 0.1 M phosphate buffer (pH 7.0), 0.05 ml of 50 mM acetylpolyamine, 0.4 U of putrescine oxidase (when acetylputrescine, acetylcadaverine or acetylspermidine is used as substrate) or polyamine oxidase (when acetylspermidine or acetylspermine is used as substrate), 0.5 ml of 2.4 mM 4-aminoantipyrine, 0.5 ml of 42 mM phenol and 20 U of peroxidase. The mixture is incubated at 37° C., and the absorbance of quinoneimine pigment formed at 500 nm is measured.
# In terms of the enzyme activity, the amount of enzyme that can hydrolyze 1 μmole of a substrate in one minute is defined as one unit (1 U).
# The relative activities of acetylpolyamine amidohydrolases against various type of acetylpolyamine, defining the activities against acetylputrescine as 100 under a condition of pH 7.0, are as shown in Table 1 below.
# Enzyme activity was measured at different pH levels ranging from 6 to 10 by using bis-Tris propane buffer solutions. The optimum pH was 9 for acetylputrescine and acetylcadaverine, and 8 for N^1 -acetylspermidine, N^8 -acetylspermidine and acetylspermine, as shown in FIG. 1.
# The optimum working temperature for the present enzyme was about 50° C., when the relative activity was determined, using acetylputrescine as substrate, as shown in FIG. 4. The optimum temperatures for the other acetylpolyamine amidohydrolases were 30° to 40° C. This clearly distinguishes the present enzyme from the known enzymes.
# Km values of the present enzyme and the other known enzymes for various types of acetylpolyamine at pH 7.0 were determined from the Line weaver-Burk plot [refer to J. Am. Chem. Soc., 56, 658 (1934)].
smiles,measurement,setting,value
CC(=O)NCCCCN [Acetylputrescine],Substrate concentration at which substrate inhibition was observed,[1],≥ 1 mM
same,Optimum pH,"[1]; 37° C., phosphate and borate buffers, per substrate",9
same,"Vmax, Mycoplana bullata enzyme",[1]; pH 9.0,29.1 u/mg
same,Optimum pH,"[2]; pH 6 to 10, bis-Tris propane buffer, per substrate",9
same,"Relative activity, the present enzyme","[2]; pH 7.0, activity against acetylputrescine defined as 100",100%
same,Optimum working temperature,[2]; substrate as labelled,about 50 °C
